Assay [1] deals with T1, Ser358Ala HA–SIK2 adenovirally expressed in primary rat adipocytes (human) (UniProt Q9H0K1).
T1 sequence: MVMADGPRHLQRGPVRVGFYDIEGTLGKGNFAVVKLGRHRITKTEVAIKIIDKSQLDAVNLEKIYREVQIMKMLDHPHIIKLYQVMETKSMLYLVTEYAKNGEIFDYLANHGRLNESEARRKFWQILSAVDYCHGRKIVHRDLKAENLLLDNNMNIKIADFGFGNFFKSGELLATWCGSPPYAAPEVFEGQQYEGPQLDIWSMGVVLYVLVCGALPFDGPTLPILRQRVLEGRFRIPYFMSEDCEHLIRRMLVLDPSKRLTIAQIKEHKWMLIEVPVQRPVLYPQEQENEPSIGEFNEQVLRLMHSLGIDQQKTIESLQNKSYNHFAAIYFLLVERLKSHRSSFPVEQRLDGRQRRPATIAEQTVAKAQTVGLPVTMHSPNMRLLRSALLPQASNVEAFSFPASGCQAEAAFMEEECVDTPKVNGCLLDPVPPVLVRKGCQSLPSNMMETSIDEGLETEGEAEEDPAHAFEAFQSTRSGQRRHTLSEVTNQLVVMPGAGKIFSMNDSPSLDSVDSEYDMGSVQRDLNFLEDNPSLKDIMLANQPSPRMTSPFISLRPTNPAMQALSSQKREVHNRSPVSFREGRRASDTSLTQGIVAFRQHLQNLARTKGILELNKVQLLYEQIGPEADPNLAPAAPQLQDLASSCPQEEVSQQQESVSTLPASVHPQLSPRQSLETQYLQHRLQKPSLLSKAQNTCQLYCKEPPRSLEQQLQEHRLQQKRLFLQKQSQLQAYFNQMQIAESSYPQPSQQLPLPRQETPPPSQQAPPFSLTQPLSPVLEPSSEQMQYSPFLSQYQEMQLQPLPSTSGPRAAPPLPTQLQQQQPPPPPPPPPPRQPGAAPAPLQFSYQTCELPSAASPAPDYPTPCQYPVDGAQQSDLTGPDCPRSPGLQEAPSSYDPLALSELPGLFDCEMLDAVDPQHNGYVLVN
Description: far-Western, overlay or dot blot; SIK2 or HA–SIK2 immunoprecipitated from stimulated adipocytes, resolved by SDS/PAGE and blotted; membranes incubated overnight with 5 μg/ml recombinant yeast His–14-3-3 (BMH1/2) in TBS-T with 5% BSA and 0.5 M NaCl, washed in TBS-T with 0.5 M NaCl; detected with an anti-His antibody; both purified.

Protein sequences, listed by entry. Tags and fused reporters are not part of them. Lines headed by an entry give the natural chain unless they say otherwise; changes in a name come on top.
UniProt P29311: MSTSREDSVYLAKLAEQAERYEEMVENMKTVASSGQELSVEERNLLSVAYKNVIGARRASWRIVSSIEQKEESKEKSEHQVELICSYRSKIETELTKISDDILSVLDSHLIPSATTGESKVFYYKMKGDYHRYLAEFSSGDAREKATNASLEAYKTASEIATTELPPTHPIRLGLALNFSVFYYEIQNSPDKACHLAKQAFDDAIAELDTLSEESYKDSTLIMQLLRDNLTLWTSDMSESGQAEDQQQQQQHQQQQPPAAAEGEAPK

The target of assay [2] is T2, Ser587Ala HA–SIK2 adenovirally expressed in primary rat adipocytes (human) (UniProt Q9H0K1).
T2 sequence: T1 sequence with A358S, S587A
The assay is described as above.

Where a chain is given by its changes, count along the chain named. Results are given in words; binding and its absence hold for the method and conditions named. Some entries that bind do so weakly or less than the wild type. Tags and fused reporters may be left off the sequences shown.

“recombinant yeast His–14-3-3 (BMH1/2) (from UniProt P29311 1-267; P34730 1-273)”: the values for the binding entry in assay [1] and in assay [2] were “no binding” and “binds”, respectively.

For the origin of these results see PMC3631101.
